PubChem BioAssay AID743454 | Peter MacCallum Cancer Centre, 2014

Assay: 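Knock-downs lowering viability or raising caspase 3/7 activity in vorinostat-treated resistant cells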 (primary screen)
System: human HCT116-VR colon cancer cells, selected for vorinostat resistance
Reagents: siRNA pool against human genes, 40 nM siRNA pool
Timing: vorinostat for 24 h, read-out about 72 h after transfection
Treatment: vorinostat at 2.5 µM final
Measurement: 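Two measures, CellTiter-Fluor viability and luminescent caspase 3/7 activity, each as fold change against same-plate mock wells, mean of duplicates, then screen-wide robust z-score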
Reading the numbers: viability robust z-score: higher = more viable cells than screen typical; caspase robust z-score: higher = more caspase 3/7 activity than screen typical
Hit rule: 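a knock-down is a hit when classed RV1 or RV2 for lowered viability, or CA1 or CA2 for caspase activation; those lethal without drug were dropped; hits were retested singly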
Here is one part, drawn at random, of about 18,000 reagents tested. Over the whole deposit, 450 (2.5%) are marked active. 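Single biological run; no consistent viability z cut-off exists, so the class columns, not z-scores, define the calls.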

LRRTM2 [SID152152490]
- viability hit class: no change
- caspase hit class: no change
- viability robust z-score: -0.68
- caspase robust z-score: -1.06
- call: inactive

RHOC [SID152152215]
- viability hit class: no change
- caspase hit class: no change
- viability robust z-score: -0.76
- caspase robust z-score: 0.06
- call: inactive

EMILIN2 [SID135622817]
- viability hit class: no change
- caspase hit class: no change
- viability robust z-score: -0.1
- caspase robust z-score: -0.38
- call: inactive

HSD17B8 [SID135621515]
- viability hit class: no change
- caspase hit class: no change
- viability robust z-score: -0.84
- caspase robust z-score: -0.3
- call: inactive

SPANXN4 [SID135625348]
- viability hit class: no change
- caspase hit class: no change
- viability robust z-score: -0.92
- caspase robust z-score: 1.77
- call: inactive

CADM3 [SID134319883]
- viability hit class: no change
- caspase hit class: no change
- viability robust z-score: 0.78
- caspase robust z-score: 2.08
- call: inactive

MYT1L [SID152155177]
- viability hit class: no change
- caspase hit class: no change
- viability robust z-score: -0.12
- caspase robust z-score: -0.78
- call: inactive

TEX19 [SID134329614]
- viability hit class: no change
- caspase hit class: no change
- viability robust z-score: -1.29
- caspase robust z-score: 0.96
- call: inactive

MANF [SID152147539]
- viability hit class: no change
- caspase hit class: no change
- viability robust z-score: 0.73
- caspase robust z-score: 0.26
- call: inactive

GPR35 [SID134311009]
- viability hit class: no change
- caspase hit class: no change
- viability robust z-score: -2
- caspase robust z-score: -0.06
- call: inactive

ISYNA1 [SID134314395]
- viability hit class: no change
- caspase hit class: no change
- viability robust z-score: -1.44
- caspase robust z-score: 1.9
- call: inactive

LIM2 [SID152151836]
- viability hit class: no change
- caspase hit class: no change
- viability robust z-score: 0.51
- caspase robust z-score: -0.46
- call: inactive

OR1G1 [SID134313904]
- viability hit class: no change
- caspase hit class: no change
- viability robust z-score: -0.31
- caspase robust z-score: 2.29
- call: inactive

ASPSCR1 [SID134311821]
- viability hit class: no change
- caspase hit class: no change
- viability robust z-score: 0.04
- caspase robust z-score: -0.78
- call: inactive

Next part (2 carried over from the part before).
OR1G1 [SID134313904]
- viability hit class: no change
- caspase hit class: no change
- viability robust z-score: -0.31
- caspase robust z-score: 2.29
- call: inactive

ASPSCR1 [SID134311821]
- viability hit class: no change
- caspase hit class: no change
- viability robust z-score: 0.04
- caspase robust z-score: -0.78
- call: inactive

LMO4 [SID134316418]
- viability hit class: no change
- caspase hit class: no change
- viability robust z-score: 0.88
- caspase robust z-score: 0.04
- call: inactive

RNASE3 [SID134316914]
- viability hit class: no change
- caspase hit class: no change
- viability robust z-score: -0.26
- caspase robust z-score: 0.84
- call: inactive

PTF1A [SID152153243]
- viability hit class: no change
- caspase hit class: no change
- viability robust z-score: 0.52
- caspase robust z-score: -0.47
- call: inactive

ZNF589 [SID135624090]
- viability hit class: no change
- caspase hit class: no change
- viability robust z-score: 0.36
- caspase robust z-score: -0.01
- call: inactive

SMIM12 [SID152148301]
- viability hit class: no change
- caspase hit class: no change
- viability robust z-score: 1.81
- caspase robust z-score: -0.54
- call: inactive

GNRH1 [SID152150624]
- viability hit class: no change
- caspase hit class: no change
- viability robust z-score: 0.56
- caspase robust z-score: 0.01
- call: inactive

CHCHD7 [SID152150795]
- viability hit class: no change
- caspase hit class: no change
- viability robust z-score: 0.14
- caspase robust z-score: -0.22
- call: inactive
